Data reported in paper PMC9354775.

Chains of the proteins cited; added tags and fusions are not shown. Lines headed by an entry give the natural chain unless they say otherwise; changes in a name come on top.
UniProt Q6WWW4: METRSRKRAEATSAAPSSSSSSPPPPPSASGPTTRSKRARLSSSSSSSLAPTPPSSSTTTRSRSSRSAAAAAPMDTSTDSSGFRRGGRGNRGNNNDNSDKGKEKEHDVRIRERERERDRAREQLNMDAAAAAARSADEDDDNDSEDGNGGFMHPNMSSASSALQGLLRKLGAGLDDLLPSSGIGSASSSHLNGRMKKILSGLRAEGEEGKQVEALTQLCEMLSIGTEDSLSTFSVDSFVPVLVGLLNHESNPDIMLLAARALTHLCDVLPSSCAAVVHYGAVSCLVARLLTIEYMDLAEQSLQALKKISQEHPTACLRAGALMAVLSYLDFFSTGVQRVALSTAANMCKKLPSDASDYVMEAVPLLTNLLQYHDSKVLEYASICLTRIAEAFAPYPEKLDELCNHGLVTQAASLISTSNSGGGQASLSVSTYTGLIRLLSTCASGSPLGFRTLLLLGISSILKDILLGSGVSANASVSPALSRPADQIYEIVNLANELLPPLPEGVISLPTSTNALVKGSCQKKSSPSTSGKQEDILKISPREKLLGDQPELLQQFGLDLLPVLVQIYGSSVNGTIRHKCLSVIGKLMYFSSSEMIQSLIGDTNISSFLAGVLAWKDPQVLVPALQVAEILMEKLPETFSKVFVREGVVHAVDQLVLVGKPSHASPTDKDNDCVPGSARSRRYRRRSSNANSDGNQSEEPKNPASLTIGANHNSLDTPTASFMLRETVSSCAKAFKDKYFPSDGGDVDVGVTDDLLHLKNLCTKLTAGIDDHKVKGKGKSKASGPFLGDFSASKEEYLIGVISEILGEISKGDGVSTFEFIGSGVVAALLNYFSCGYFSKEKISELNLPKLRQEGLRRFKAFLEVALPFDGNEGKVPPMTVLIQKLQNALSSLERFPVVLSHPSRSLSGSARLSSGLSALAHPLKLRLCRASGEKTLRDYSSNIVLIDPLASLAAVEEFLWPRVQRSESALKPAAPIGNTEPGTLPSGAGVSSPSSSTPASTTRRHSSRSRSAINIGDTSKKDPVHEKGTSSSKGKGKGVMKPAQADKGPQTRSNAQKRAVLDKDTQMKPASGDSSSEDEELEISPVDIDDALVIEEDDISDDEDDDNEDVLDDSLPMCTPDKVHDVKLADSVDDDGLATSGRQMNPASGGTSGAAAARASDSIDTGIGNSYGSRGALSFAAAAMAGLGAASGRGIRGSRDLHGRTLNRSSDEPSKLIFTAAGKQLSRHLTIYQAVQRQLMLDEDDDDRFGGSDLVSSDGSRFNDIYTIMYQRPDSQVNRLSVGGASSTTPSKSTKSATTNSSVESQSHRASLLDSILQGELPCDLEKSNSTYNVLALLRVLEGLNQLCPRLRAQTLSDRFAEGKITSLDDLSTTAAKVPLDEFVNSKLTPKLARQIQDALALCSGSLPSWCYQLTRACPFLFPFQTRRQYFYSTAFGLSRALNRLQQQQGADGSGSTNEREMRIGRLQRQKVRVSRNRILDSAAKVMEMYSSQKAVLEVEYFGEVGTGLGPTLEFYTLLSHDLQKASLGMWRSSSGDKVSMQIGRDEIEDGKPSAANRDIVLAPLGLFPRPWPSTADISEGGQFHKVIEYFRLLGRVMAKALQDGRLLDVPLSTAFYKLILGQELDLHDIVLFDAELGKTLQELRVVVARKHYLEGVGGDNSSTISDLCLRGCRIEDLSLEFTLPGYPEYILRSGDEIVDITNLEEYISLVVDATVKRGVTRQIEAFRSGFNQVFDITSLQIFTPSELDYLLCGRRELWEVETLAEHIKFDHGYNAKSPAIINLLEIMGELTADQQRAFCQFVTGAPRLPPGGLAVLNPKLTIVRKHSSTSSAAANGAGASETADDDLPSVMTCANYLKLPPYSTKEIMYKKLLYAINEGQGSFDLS
UniProt Q9M1X3: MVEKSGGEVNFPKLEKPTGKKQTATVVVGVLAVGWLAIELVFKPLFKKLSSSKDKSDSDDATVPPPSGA
UniProt Q42525: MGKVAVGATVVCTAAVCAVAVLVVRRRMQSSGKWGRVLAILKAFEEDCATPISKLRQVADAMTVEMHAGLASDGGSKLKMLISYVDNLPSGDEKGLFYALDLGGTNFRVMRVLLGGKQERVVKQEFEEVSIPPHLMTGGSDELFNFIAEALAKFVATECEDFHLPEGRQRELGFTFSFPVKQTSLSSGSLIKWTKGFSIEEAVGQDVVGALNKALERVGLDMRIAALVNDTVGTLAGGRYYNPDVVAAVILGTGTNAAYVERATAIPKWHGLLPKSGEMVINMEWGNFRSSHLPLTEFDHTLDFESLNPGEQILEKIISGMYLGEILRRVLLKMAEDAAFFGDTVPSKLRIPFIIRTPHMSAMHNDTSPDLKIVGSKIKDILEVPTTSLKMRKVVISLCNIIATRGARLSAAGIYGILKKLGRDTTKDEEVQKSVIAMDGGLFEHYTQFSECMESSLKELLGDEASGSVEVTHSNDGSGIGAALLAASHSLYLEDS
UniProt Q9S9K7: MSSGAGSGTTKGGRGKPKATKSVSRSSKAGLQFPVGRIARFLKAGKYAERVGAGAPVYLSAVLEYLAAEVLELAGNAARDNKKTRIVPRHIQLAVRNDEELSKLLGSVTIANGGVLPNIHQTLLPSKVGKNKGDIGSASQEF
UniProt Q6EVK6: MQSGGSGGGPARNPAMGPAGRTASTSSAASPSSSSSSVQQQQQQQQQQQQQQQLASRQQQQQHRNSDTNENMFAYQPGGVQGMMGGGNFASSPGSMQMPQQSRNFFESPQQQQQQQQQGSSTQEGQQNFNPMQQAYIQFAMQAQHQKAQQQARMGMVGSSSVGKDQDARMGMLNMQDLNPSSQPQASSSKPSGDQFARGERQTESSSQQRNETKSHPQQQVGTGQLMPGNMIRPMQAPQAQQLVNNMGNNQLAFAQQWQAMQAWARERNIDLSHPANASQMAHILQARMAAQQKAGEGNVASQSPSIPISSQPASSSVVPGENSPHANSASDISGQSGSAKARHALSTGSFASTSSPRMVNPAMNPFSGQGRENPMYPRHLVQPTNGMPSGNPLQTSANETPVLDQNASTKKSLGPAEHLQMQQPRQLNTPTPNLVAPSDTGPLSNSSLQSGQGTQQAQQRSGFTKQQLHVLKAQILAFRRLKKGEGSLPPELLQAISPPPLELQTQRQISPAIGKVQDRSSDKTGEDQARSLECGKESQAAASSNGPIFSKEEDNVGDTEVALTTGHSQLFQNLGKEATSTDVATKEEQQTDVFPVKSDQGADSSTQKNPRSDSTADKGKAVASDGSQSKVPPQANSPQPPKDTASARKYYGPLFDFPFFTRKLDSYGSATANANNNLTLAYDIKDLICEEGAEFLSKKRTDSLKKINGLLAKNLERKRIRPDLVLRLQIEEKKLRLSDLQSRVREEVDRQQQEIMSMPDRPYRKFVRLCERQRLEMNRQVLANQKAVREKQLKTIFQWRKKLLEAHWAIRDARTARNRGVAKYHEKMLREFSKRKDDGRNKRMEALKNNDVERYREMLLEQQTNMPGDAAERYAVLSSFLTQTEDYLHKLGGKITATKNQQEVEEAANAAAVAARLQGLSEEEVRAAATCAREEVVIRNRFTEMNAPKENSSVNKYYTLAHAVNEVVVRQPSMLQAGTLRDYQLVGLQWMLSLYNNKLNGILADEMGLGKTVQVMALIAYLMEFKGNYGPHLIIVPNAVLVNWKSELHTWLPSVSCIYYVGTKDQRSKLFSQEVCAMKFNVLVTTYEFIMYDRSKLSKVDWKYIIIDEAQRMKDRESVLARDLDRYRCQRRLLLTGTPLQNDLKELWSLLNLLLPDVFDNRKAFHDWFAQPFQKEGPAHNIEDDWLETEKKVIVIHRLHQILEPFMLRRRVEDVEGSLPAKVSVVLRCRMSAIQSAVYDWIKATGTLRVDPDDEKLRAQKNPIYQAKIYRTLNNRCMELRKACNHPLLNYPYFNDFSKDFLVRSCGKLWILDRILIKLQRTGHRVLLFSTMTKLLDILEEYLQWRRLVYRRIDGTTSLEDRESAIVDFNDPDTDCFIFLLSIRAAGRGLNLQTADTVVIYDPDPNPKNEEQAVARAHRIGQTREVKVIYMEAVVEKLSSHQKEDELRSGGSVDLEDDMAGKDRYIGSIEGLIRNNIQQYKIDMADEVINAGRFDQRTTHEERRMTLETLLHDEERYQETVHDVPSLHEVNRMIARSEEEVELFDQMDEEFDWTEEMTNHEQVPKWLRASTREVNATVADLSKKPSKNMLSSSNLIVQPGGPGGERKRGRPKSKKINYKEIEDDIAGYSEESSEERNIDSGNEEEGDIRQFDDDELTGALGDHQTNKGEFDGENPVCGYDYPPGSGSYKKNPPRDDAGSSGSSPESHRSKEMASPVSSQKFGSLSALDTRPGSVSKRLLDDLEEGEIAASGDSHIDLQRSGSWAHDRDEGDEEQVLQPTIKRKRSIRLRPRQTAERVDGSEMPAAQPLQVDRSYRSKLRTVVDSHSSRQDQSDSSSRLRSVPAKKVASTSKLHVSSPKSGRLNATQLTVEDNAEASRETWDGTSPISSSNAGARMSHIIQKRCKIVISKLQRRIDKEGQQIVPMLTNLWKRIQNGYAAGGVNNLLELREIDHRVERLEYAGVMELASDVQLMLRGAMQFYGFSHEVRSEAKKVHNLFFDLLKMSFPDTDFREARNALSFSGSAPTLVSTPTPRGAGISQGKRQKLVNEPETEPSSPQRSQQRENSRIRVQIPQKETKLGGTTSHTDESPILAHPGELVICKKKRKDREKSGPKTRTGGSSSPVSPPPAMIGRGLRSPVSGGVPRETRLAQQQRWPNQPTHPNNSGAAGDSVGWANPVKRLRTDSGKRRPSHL

B1: ERD14 (protein, UniProt P42763 1-185)
chain: MAEEIKNVPEQEVPKVATEESSAEVTDRGLFDFLGKKKDETKPEETPIASEFEQKVHISEPEPEVKHESLLEKLHRSDSSSSSSSEEEGSDGEKRKKKKEKKKPTTEVEVKEEEKKGFMEKLKEKLPGHKKPEDGSAVAAAPVVVPPPVEEAHPVEKKGILEKIKEKLPGYHPKTTVEEEKKDKE
B2: SWIS3C (protein, UniProt Q9XI07 1-807)
chain: MPASEDRRGKWKRKKRGGLSAARKPKQEEEDMEEEDEENNNNNNEEMDDVENADELQQNGGATPDPGLGIGEVVEDSGSRISDFPAVVKRVVIRPHASVMAVVAAERAGLIGETRGQGSLPALENISFGQLQALSTVPADSLDLERSDGSSSAYVISPPPIMDGEGVVKRFGDLVHVLPMHSDWFAPNTVDRLERQVVPQFFSGKSPNHTPESYMEFRNAIVSKYVENPEKTLTISDCQGLVDGVDIEDFARVFRFLDHWGIINYCATAQSHPGPLRDVSDVREDTNGEVNVPSAALTSIDSLIKFDKPNCRHKGGEVYSSLPSLDGDSPDLDIRIREHLCDSHCNHCSRPLPTVYFQSQKKGDILLCCDCFHHGRFVVGHSCLDFVRVDPMKFYGDQDGDNWTDQETLLLLEAVELYNENWVQIADHVGSKSKAQCILHFLRLPVEDGLLDNVEVSGVTNTENPTNGYDHKGTDSNGDLPGYSEQGSDTEIKLPFVKSPNPVMALVAFLASAVGPRVAASCAHESLSVLSEDDRMKSEGMQGKEASLLDGENQQQDGAHKTSSQNGAEAQTPLPQDKVMAAFRAGLSAAATKAKLFADHEEREIQRLSANIVNHQLKRMELKLKQFAEIETLLMKECEQVEKTRQRFSAERARMLSARFGSPGGISPQTNNLQGMSLSTGGNNINSLMHQQHQQQQASATSQPSIIPGFSNNPQVQAQMHFMARQQQQQQQQQQQQQQAFSFGPRLPLNAIQTNAGSTASPNVMFGNNQLNNPAAAGAASINQPSFSHPMVRSSTGSGSGSGLGLN
B3: ubiquitin hydrolase 12 (UBP12) (enzyme, UniProt Q9FPT1 1-1116)
chain: MTMMTPPPVDQPEDEEMLVPNSDLVDGPAQPMEVTQPETAASTVENQPAEDPPTLKFTWTIPNFSRQNTRKHYSDVFVVGGYKWRILIFPKGNNVDHLSMYLDVSDAASLPYGWSRYAQFSLAVVNQIHTRYTVRKETQHQFNARESDWGFTSFMPLSELYDPSRGYLVNDTVLVEAEVAVRKVLDYWSYDSKKETGFVGLKNQGATCYMNSLLQTLYHIPYFRKAVYHMPTTENDAPTASIPLALQSLFYKLQYNDTSVATKELTKSFGWDTYDSFMQHDVQELNRVLCEKLEDKMKGTVVEGTIQQLFEGHHMNYIECINVDFKSTRKESFYDLQLDVKGCKDVYASFDKYVEVERLEGDNKYHAEGHGLQDAKKGVLFIDFPPVLQLQLKRFEYDFMRDTMVKINDRYEFPLELDLDREDGKYLSPDADRSVRNLYTLHSVLVHSGGVHGGHYYAFIRPTLSDQWYKFDDERVTKEDLKRALEEQYGGEEELPQTNPGFNNNPPFKFTKYSNAYMLVYIRESDKDKIICNVDEKDIAEHLRVRLKKEQEEKEDKRRYKAQAHLYTIIKVARDEDLKEQIGKDIYFDLVDHDKVRSFRIQKQTPFQQFKEEVAKEFGVPVQLQRFWIWAKRQNHTYRPNRPLTPQEELQPVGQIREASNKANTAELKLFLEVEHLDLRPIPPPEKSKEDILLFFKLYDPEKAVLSYAGRLMVKSSSKPMDITGKLNEMVGFAPDEEIELFEEIKFEPCVMCEHLDKKTSFRLCQIEDGDIICFQKPLVNKEIECLYPAVPSFLEYVQNRQLVRFRALEKPKEDEFVLELSKQHTYDDVVEKVAEKLGLDDPSKLRLTSHNCYSQQPKPQPIKYRGVDHLSDMLVHYNQTSDILYYEVLDIPLPELQGLKTLKVAFHHATKEEVVIHNIRLPKQSTVGDVINELKTKVELSHPDAELRLLEVFYHKIYKIFPSTERIENINDQYWTLRAEEIPEEEKNIGPNDRLILVYHFAKETGQNQQVQNFGEPFFLVIHEGETLEEIKNRIQKKLHVSDEDFAKWKFAFMSMGRPEYLQDTDVVYNRFQRRDVYGAFEQYLGLEHADTTPKRAYAANQNRHAYEKPVKIYN
B4: UBP13 (enzyme, UniProt Q84WU2 1-1115)
chain: MTMMTPPPLDQQEDEEMLVPNPDLVEGPQPMEVAQTDPAATAVENPPPEDPPSLKFTWTIPMFTRLNTRKHYSDVFVVGGYKWRILIFPKGNNVDHLSMYLDVADAANLPYGWSRYSQFSLAVVNQVNNRYSIRKETQHQFNARESDWGFTSFMPLSELYEPTRGYLVNDTVLIEAEVAVRKVLDYWSYDSKKETGFVGLKNQGATCYMNSLLQTLYHIPYFRKAVYHMPTTENDAPTASIPLALQSLFYKLQYNDTSVATKELTKSFGWDTYDSFMQHDVQELNRVLCEKLEDKMKGTVVEGTIQKLFEGHHMNYIECINVDYKSTRKESFYDLQLDVKGCKDVYASFDKYVEVERLEGDNKYHAEGHDLQDAKKGVLFIDFPPVLQLQLKRFEYDFMRDTMVKINDRYEFPLQLDLDREDGRYLSPDADKSVRNLYTLHSVLVHSGGVHGGHYYAFIRPTLSDQWYKFDDERVTKEDVKRALEEQYGGEEELPQNNPGFNNPPFKFTKYSNAYMLVYIRESDKDKIICNVDEKDIAEHLRVRLKKEQEEKEDKRKYKAQAHLFTTIKVARDDDITEQIGKNIYFDLVDHEKVRSFRIQKQTPFQQFKEEVAKEFGVPVQLQRFWIWAKRQNHTYRPNRPLSPNEELQTVGQIREASNKANNAELKLFLEIERGPDDLPIPPPEKTSEDILLFFKLYDPENAVLRYVGRLMVKSSSKPMDIVGQLNKMAGFAPDEEIELFEEIKFEPCVMCEQIDKKTSFRLCQIEDGDIICYQKPLSIEESEFRYPDVPSFLEYVQNRELVRFRTLEKPKEDEFTMELSKLHTYDDVVERVAEKLGLDDPSKLRLTSHNCYSQQPKPQPIKYRGVDHLSDMLVHYNQTSDILYYEVLDIPLPELQGLKTLKVAFHSATKDEVIIHNIRLPKQSTVGDVINELKTKVELSHQDAELRLLEVFFHKIYKIFPSTERIENINDQYWTLRAEEIPEEEKNIGPNDRLIHVYHFTKEAGQNQQVQNFGEPFFLVIHEGETLEEIKTRIQKKLHVPDEDFAKWKFASFSMGRPDYLLDTDVVYNRFQRRDVYGAWEQYLGLEHIDNAPKRAYAANQNRHAYEKPVKIYN
B5: UBP26 (enzyme, UniProt Q9SCJ9 1-1067)
chain: MSRPNTRNKNKRQRPDAVDSSSQILRKIHEANDVTDDDINQLFMIWKPVCQGCRVNTRDNPNCFCGLVPPLNGSRKSGLWQKTSEIIQSLGPDPTLDRRDSESTPAGLTNLGATCYANSILQCLYMNTAFREGVFSVEVHVLKQNPVLDQIARLFAQLHASQKSFVDSDAFVKTLELDNGVQQDTHEFLTLLLSLLERCLLHSGVKAKTIVQDLFSGSVSHVTTCSKCGRDSEASSKMEDFYALELNVKGLKSLDASLNDYLSLEQLNGDNQYFCGSCNARVDATRCIKLRTLPPVITFQLKRCIFLPKTTAKKKITSSFSFPQVLDMGSRLAESSQNKLTYDLSAVLIHKGSAVNSGHYVAHIKDEKTGLWWEFDDEHVSELGKRPCNEASSSTPQSESNGTASSGNITDGIQSGSSDCRSAIKSEVFSSSDAYMLMYSLRCDKQENQEGQKENPIDITKGEVKQLKGGYLPKHLSEWINNMNAVFLESCKQYNLRKEKELNALTERRQEVRTILSEAAVQSLEEQYFWISTDWLRLWADTTLPPALDNTPLLCSHGKVHASKVNCMKRISELAWIKLESKFNGGPKLGKGDYCRDCLMDGARMVVSSDSYRDRRTFMKSIANDVLSGKCEDGMYYISRAWLQQWIKRKNLDAPTEADAGPTNAITCNHGELMPEQAPGAKRVVVPENFWSFLFEDALKVMSEDTLDCTCFPVDSSQCCHCTEVLSEVACFEDSLRTLKVKQRQNHEKLATGKGIPLTPQSRYFLLPSPWLVQWRIYINMTGKNSSSAPEPERLDGVINTLKCKKHTRLLERLPELVCRRGSYFQKNPSTDKLTIIPELDWKYFCDEWGGLMENGISAFIEVGNTDQSSSPDVIDLEKDSSPDDNMDVDAQQLILRASPEICEECIGERESCELMQKLSYSEGDVFVCFVRGKEAPKAMLEASDSSFEVDRRTSKRSRRTNYGNLTSLKVSATTTVYQLKMMIWELLGVMKENQELHKGSKVIDQESATLADMNIFPGDRLWVRDTEMHEHRDIADELCEKKPGAQDIEEGFRGTLLTGNISSEAC
B6: 5-methyltetrahydropteroyl-triglutamate, homocysteine methyltransferase 2 (MS2) (enzyme, UniProt Q9SRV5 1-765)
chain: MASHIVGYPRMGPKRELKFALESFWDGKSSADDLQKVSADLRSDIWKQMSAAGIKYIPSNTFSHYDQVLDTTAMLGAVPSRYGFTSGEIGLDVYFSMARGNASVPAMEMTKWFDTNYHYIVPELGPEVKFSYASHKAVNEYKEAKALGVETVPVLVGPVSYLLLSKLAKGVDKSFDLLSLLPKILPVYKEVIAELKAAGASWIQLDEPLFVMDLEGHKLQAFSGAYAELESTLSGLNVLVETYFADIPAEAYKTLTSLKGVTAFGFDLVRGTKTIDLIKSGFPQGKYLFAGVVDGRNIWANDLAASLITLQSLEGVVGKDKLVVSTSCSLLHTAVDLINETKLDAEIKSWLAFAAQKVVEVDALAKALAGQTNESFFTANADALSSRRSSPRVTNESVQKAAAALKGSDHRRTTEVSARLDAQQKKLNLPILPTTTIGSFPQTVELRRVRREYKAKKISEEDYVKAIKEEIKKVVDIQEDLDIDVLVHGEPERNDMVEYFGEQLSGFAFTANGWVQSYGSRCVKPPVIYGDVSRPKPMTVFWSSTAQSMTKRPMKGMLTGPVTILNWSFVRNDQPRHETCYQIALAIKDEVEDLEKGGIGVIQIDEAALREGLPLRKAEHSFYLDWAVHSFRITNCGVQDSTQIHTHMCYSNFNDIIHSIIDMDADVITIENSRSDEKLLSVFREGVKYGAGIGPGVYDIHSPRIPSTDEIADRINKMLAVLEQNILWVNPDCGLKTRKYTEVKPALKAMVDAAKLIRSQLGSAK

biological target: UPL3-GFP (A. thaliana) (UniProt Q6WWW4); assay: affinity purification with mass spectrometry; GFP nanotrap (GBP beads) on lysate of rosette leaves of 6-wk-old ACTIN3:UPL3-GFP plants; IP buffer 50 mM Tris-HCl pH 7.4, 150 mM NaCl, 1 mM EDTA, 1% Nonidet P-40, 10% glycerol; 4°C, 2 h; hits of ACTIN3:GFP control plants subtracted

| Molecule | binding |
| --- | --- |
| AT3G63160 (from UniProt Q9M1X3) | binds |
| hexokinase 1 (HXK1) (from UniProt Q42525 1-496) (enzyme) | binds |
| H2AXb (from UniProt Q9S9K7 1-142) | binds |
| SWI-SNF chromatin-remodeling ATPase BRAHMA (BRM) (from UniProt Q6EVK6 1-2193) | binds |
| B1 | binds |
| B2 | binds |
| B3 | binds |
| B4 | binds |
| B5 | binds |
| B6 | binds |

These are yes or no findings as the source states them, for the method shown. Binding seen in cells or lysates may run through a third protein. A yes stands for co-enrichment or nearness to the bait. Other partners may have been found.
